Results on four molecules are retold here after patent EP4713370A2.

Protein sequences, listed by entry. Tags and fused reporters are not part of them. Lines headed by an entry give the natural chain unless they say otherwise; changes in a name come on top.
UniProt O76036: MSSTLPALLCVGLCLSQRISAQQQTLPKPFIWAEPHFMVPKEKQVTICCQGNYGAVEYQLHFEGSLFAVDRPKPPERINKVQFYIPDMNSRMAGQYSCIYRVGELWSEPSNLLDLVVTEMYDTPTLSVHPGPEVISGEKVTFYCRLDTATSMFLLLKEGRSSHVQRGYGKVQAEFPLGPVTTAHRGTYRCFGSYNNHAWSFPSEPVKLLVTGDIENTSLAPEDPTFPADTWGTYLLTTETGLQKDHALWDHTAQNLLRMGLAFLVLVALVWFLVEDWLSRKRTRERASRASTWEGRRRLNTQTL

Results are given in words; binding and its absence hold for the method and conditions named. Some entries that bind do so weakly or less than the wild type.

Assay [1] concerns the target Recombinant human NKp46, His Tag (human NKp46 ECD antigen, aa. 22-254, his-tagged) (human) (UniProt O76036). Briefly: ELISA on coated NKp46-His, and BLI with antibody on anti-human IgG Fc probe and 11 nM NKp46-His. Background: In an ELISA, binding on a coated surface is turned into a signal by an enzyme label.
The target is the same in assay [2]. The experiment in a line: SPR (Biacore 8K+), antibody captured on protein A chip, NKp46-His as analyte, 1:1 fit. For orientation: SPR reads the build-up and loss of mass on a sensor chip optically.

B1: h3-7 (antibody, IgG1, V domains shown)
VH: EQQLLESGGGLVQPGGSLRLSCAASGFSPSSYYMSWVRQAPGKCLEWIGIIFSGGSTWYASWAKGRFTISKDSSKNTVYLQMNSLRAEDTAVYFCARGDAVGSGYWGLWGPGTLVTVSS
VL: DVQMTQSPSTLSASVGDRVTITCQASQDIYIYLAWYQQKPGKPPKLLMYSASTLASGVPSRFSGSGSGTEFTLTISSLQPDDFATYFCQSYDGTSNTGFGCGTKVEIK
Consider B1, for which the binding result in assay [1] is on record as “binds”.

B2: IP-46-3 (antibody, human IgG1, kappa, V domains shown)
VH: EVQLQQSGPELVKPGASVKISCKTSGYTFTEYTMHWVKQSHGKSLEWIGGISPNIGGTSYNQKFKGKATLTVDKSSSTAYMELRSLTSEDSAVYYCARRGGSFDYWGQGTTLTVSS
VL: DIVMTQSPATLSVTPGDRVSLSCRASQSISDYLHWYQQKSHESPRLLIKYASQSISGIPSRFSGSGSGSDFTLSINSVEPEDVGVYYCQNGHSFPLTFGAGTKLELKR
B2: the binding entry in assay [2] is on record as “binds”.

B3: h6-1 (antibody, IgG1, V domains shown)
VH: EQQLLESGGGLVQPGGSLRLSCAASGFSFSSSAWICWVRQAPGKCLEWIGCINTVSVNAYYASWAKGRFTISKDSSKNTVYLQMNSLRAEDTAVYFCARNPYNSLRLWGPGTLVTVSS
VL: DVQMTQSPSTLSASVGDRVTITCQASENIYSSLAWYQQKPGKPPKLLMYDVSDLASGVPSRFSGSGSGTEFTLTISSLQPDDFATYFCLGGYPSNNYRMAFGCGTKVEIK
In the case of B3, the binding result in assay [1] is reported as “binds”.

B4: h5-13 (antibody, IgG1, V domains shown)
VH: EQQLLESGGGLVQPGGSLRLSCAASGFSLSSYHMSWVRQAPGKCLEWIGYILANTDSYYANWAKGRFTISKDSSKNTVYLQMNSLRAEDTAVYFCARYDNHDAAYSTLWGPGTLVTVSS
VL: DVQMTQSPSTLSASVGDRVTITCQASQSISTALAWYQQKPGKPPKLLMYKASTLASGVPSRFSGSGSGTEFTLTISSLQPDDFATYFCQQGYSRSNVDNVFGCGTKVEIK
Regarding B4, the binding result in assay [1] was “binds”.
